No constants are given. Whether binding was seen depends on the method and setting. Sequences can lack the tags named with a protein.
Target: Entamoeba histolytica triosephosphate isomerase (Entamoeba histolytica) (UniProt O02611)
Experiment: condition: only with lithium dodecyl sulphate (concentrations in Figure 4B); native gel or EMSA; BN-PAGE of thirty micrograms of purified TIM loaded with increasing concentrations of lithium dodecyl sulphate (LDS); aggregates to single monomers; both purified

B1: Entamoeba histolytica triosephosphate isomerase (enzyme, UniProt O02611 1-261)
chain: MSARKFVVGGNWKCNGTLASIETLTKGVAASVDAELAKKVEVIVGVPFIYIPKVQQILAGEANGANILVSAENAWTKSGAYTGEVHVGMLVDCQVPYVILGHSERRQIFHESNEQVAEKVKVAIDAGLKVIACIGETEAQRIANQTEEVVAAQLKAINNAISKEAWKNIILAYEPVWAIGTGKTATPDQAQEVHQYIRKWMTENISKEVAEATRIQYGGSVNPANCNELAKKADIDGFLVGGASLDAAKFKTIINSVSEKF
B1 was tested, and the binding was “no binding”.
